The record followed here is PMC9481612, “Molecular architecture of the augmin complex” (Nature Communications, 2022).

No constants are given. Whether binding was seen depends on the method and setting. Some binding calls cover weakened binding; strength is not graded here.

T1: HAUS2 (human) (UniProt Q9NVX0)
T1 sequence: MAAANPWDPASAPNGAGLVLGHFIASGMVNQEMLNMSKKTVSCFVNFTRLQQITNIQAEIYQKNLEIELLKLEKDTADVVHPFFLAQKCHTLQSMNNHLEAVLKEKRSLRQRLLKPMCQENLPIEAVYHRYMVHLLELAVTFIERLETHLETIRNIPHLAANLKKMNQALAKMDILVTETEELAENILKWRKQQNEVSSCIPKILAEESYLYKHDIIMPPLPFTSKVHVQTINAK

B1: HAUS6 N-terminal region (a.a. 1–432) (domain or fragment, UniProt Q7Z4H7 1-432)
chain: MSSASVTAFEKEHLWMYLQALGFEPGPATIACGKIVSHTHLGVNMFDKLNRDAFHIISYFLFQVLDQSLTKEVFKFCWPPFDQKSDTEFRKHCCEWIKRISGECGSSFPQVVGSLFLSPGGPKFIHLMYHFARFVAMKYIKSNSKNSSHHFVETFNIKPQDLHKCIARCHFARSRFLQILQRQDCVTQKYQENAQLSVKQVRNLRSECIGLENQIKKMEPYDDHSNMEEKIQKVRSLWASVNETLMFLEKEREVVSSVLSLVNQYALDGTNVAINIPRLLLDKIEKQMFQLHIGNVYEAGKLNLLTVIQLLNEVLKVMKYERCQADQARLTVDLHYLEKETKFQKERLSDLKHMRYRIKDDLTTIRHSVVEKQGEWHKKWKEFLGLSPFSLIKGWTPSVDLLPPMSPLSFDPASEEVYAKSILCQYPASLPD
B2: HAUS8 (natural protein, human, UniProt Q9BT25 1-410, looked up)
chain: MADSSGRGAGKPATGPTNSSSAKKKDKRVQGGRVIESRYLQYEKKTTQKAPAGDGSQTRGKMSEGGRKSSLLQKSKADSSGVGKGDLQSTLLEGHGTAPPDLDLSAINDKSIVKKTPQLAKTISKKPESTSFSAPRKKSPDLSEAMEMMESQTLLLTLLSVKMENNLAEFERRAEKNLLIMCKEKEKLQKKAHELKRRLLLSQRKRELADVLDAQIEMLSPFEAVATRFKEQYRTFATALDTTRHELPVRSIHLEGDGQQLLDALQHELVTTQRLLGELDVGDSEENVQVLDLLSELKDVTAKKDLELRRSFAQVLELSAEASKEAALANQEVWEETQGMAPPSRWYFNQDSACRESGGAPKNTPLSEDDNPGASSAPAQATFISPSEDFSSSSQAEVPPSLSRSGRDLS
notes: HAUS8, human; 410; a.a; 1-138 and 340-410 are not seen in the cryo-EM map; also called H8; source: High5 insect cells, co-infected with baculoviruses; purified as part of the augmin octamer (StrepII-Trap, Superose 6)
B3: HAUS5 (protein, UniProt O94927 1-633)
chain: MELAQEARELGCWAVEEMGVPVAARAPESTLRRLCLGQGADIWAYILQHVHSQRTVKKIRGNLLWYGHQDSPQVRRKLELEAAVTRLRAEIQELDQSLELMERDTEAQDTAMEQARQHTQDTQRRALLLRAQAGAMRRQQHTLRDPMQRLQNQLRRLQDMERKAKVDVTFGSLTSAALGLEPVVLRDVRTACTLRAQFLQNLLLPQAKRGSLPTPHDDHFGTSYQQWLSSVETLLTNHPPGHVLAALEHLAAEREAEIRSLCSGDGLGDTEISRPQAPDQSDSSQTLPSMVHLIQEGWRTVGVLVSQRSTLLKERQVLTQRLQGLVEEVERRVLGSSERQVLILGLRRCCLWTELKALHDQSQELQDAAGHRQLLLRELQAKQQRILHWRQLVEETQEQVRLLIKGNSASKTRLCRSPGEVLALVQRKVVPTFEAVAPQSRELLRCLEEEVRHLPHILLGTLLRHRPGELKPLPTVLPSIHQLHPASPRGSSFIALSHKLGLPPGKASELLLPAAASLRQDLLLLQDQRSLWCWDLLHMKTSLPPGLPTQELLQIQASQEKQQKENLGQALKRLEKLLKQALERIPELQGIVGDWWEQPGQAALSEELCQGLSLPQWRLRWVQAQGALQKLCS
B4: HAUS6 (protein, UniProt Q7Z4H7 1-955)
chain: MSSASVTAFEKEHLWMYLQALGFEPGPATIACGKIVSHTHLGVNMFDKLNRDAFHIISYFLFQVLDQSLTKEVFKFCWPPFDQKSDTEFRKHCCEWIKRISGECGSSFPQVVGSLFLSPGGPKFIHLMYHFARFVAMKYIKSNSKNSSHHFVETFNIKPQDLHKCIARCHFARSRFLQILQRQDCVTQKYQENAQLSVKQVRNLRSECIGLENQIKKMEPYDDHSNMEEKIQKVRSLWASVNETLMFLEKEREVVSSVLSLVNQYALDGTNVAINIPRLLLDKIEKQMFQLHIGNVYEAGKLNLLTVIQLLNEVLKVMKYERCQADQARLTVDLHYLEKETKFQKERLSDLKHMRYRIKDDLTTIRHSVVEKQGEWHKKWKEFLGLSPFSLIKGWTPSVDLLPPMSPLSFDPASEEVYAKSILCQYPASLPDAHKQHNQENGCRGDSDTLGALHDLANSPASFLSQSVSSSDRNSVTVLEKDTKMGTPKEKNEAISKKIPEFEVENSPLSDVAKNTESSAFGGSLPAKKSDPFQKEQDHLVEEVARAVLSDSPQLSEGKEIKLEELIDSLGSNPFLTRNQIPRTPENLITEIRSSWRKAIEMEENRTKEPIQMDAEHREVLPESLPVLHNQREFSMADFLLETTVSDFGQSHLTEEKVISDCECVPQKHVLTSHIDEPPTQNQSDLLNKKVICKQDLECLAFTKLSETSRMETFSPAVGNRIDVMGGSEEEFMKILDHLEVSCNKPSTNKTMLWNSFQISSGISSKSFKDNDFGILHETLPEEVGHLSFNSSSSSEANFKLEPNSPMHGGTLLEDVVGGRQTTPESDFNLQALRSRYEALKKSLSKKREESYLSNSQTPERHKPELSPTPQNVQTDDTLNFLDTCDLHTEHIKPSLRTSIGERKRSLSPLIKFSPVEQRLRTTIACSLGELPNLKEEDILNKSLDAKEPPSDLTR
B5: HAUS3 (natural protein, human, UniProt Q68CZ6 1-603, looked up)
chain: MSCGNEFVETLKKIGYPKADNLNGEDFDWLFEGVEDESFLKWFCGNVNEQNVLSERELEAFSILQKSGKPILEGAALDEALKTCKTSDLKTPRLDDKELEKLEDEVQTLLKLKNLKIQRRNKCQLMASVTSHKSLRLNAKEEEATKKLKQSQGILNAMITKISNELQALTDEVTQLMMFFRHSNLGQGTNPLVFLSQFSLEKYLSQEEQSTAALTLYTKKQFFQGIHEVVESSNEDNFQLLDIQTPSICDNQEILEERRLEMARLQLAYICAQHQLIHLKASNSSMKSSIKWAEESLHSLTSKAVDKENLDAKISSLTSEIMKLEKEVTQIKDRSLPAVVRENAQLLNMPVVKGDFDLQIAKQDYYTARQELVLNQLIKQKASFELLQLSYEIELRKHRDIYRQLENLVQELSQSNMMLYKQLEMLTDPSVSQQINPRNTIDTKDYSTHRLYQVLEGENKKKELFLTHGNLEEVAEKLKQNISLVQDQLAVSAQEHSFFLSKRNKDVDMLCDTLYQGGNQLLLSDQELTEQFHKVESQLNKLNHLLTDILADVKTKRKTLANNKLHQMEREFYVYFLKDEDYLKDIVENLETQSKIKAVSLED
notes: HAUS3, human; 603; also called H3; source: High5 insect cells, co-infected with baculoviruses; purified as part of the augmin octamer (StrepII-Trap, Superose 6)
B6: HAUS1 (protein, UniProt Q96CS2 1-278)
chain: MEPQEERETQVAAWLKKIFGDHPIPQYEVNPRTTEILHHLSERNRVRDRDVYLVIEDLKQKASEYESEAKYLQDLLMESVNFSPANLSSTGSRYLNALVDSAVALETKDTSLASFIPAVNDLTSDLFRTKSKSEEIKIELEKLEKNLTATLVLEKCLQEDVKKAELHLSTERAKVDNRRQNMDFLKAKSEEFRFGIKAAEEQLSARGMDASLSHQSLVALSEKLARLKQQTIPLKKKLESYLDLMPNPSLAQVKIEEAKRELDSIEAELTRRVDMMEL

One assay has as its target T1, HAUS2 (human). As to the kind of experiment: cryo-EM structure; augmin^ΔH6C octamer on thin amorphous carbon film, Volta Phase Plate; head, neck and legs refined separately to 5–7 Å; subunits placed by fitting AlphaFold2/ColabFold models into the maps; both purified.
Take B1: the binding result is “binds”.

For the molecule B2, the binding result was “binds”.

The next assay deals with T1, HAUS2 (human). Nature of the assay: cross-linking; purified augmin^ΔH6C with DSSO at 250:1, 500:1, 750:1 and 1000:1 molar ratio, 1 h on ice; trypsin in gel or in solution, LC-MS/MS, MetaMorpheus, 1% FDR; both purified.
With B1, the binding entry is recorded as “binds”.

As to B3, the binding result is on record as “binds”.

The next assay addresses T1, HAUS2 (human). Nature of the assay: co-purification; holo-complex, eight subunits co-expressed in High5 cells; cleared lysate on StrepII-Trap (tag on H2), eluted with D-desthiobiotin, then Superose 6; SDS-PAGE.
Regarding B2, the binding result is “binds”.

As to B4, the binding result is on record as “binds”.

In the case of B3, the binding entry is given as “binds”.

With B5, the binding result was “binds”.

Turning to B6, the binding entry was “binds”.
